Source: publication PMC3846882

By UniProt entry, the sequences of proteins in these tests, tags left out.
UniProt Q15046: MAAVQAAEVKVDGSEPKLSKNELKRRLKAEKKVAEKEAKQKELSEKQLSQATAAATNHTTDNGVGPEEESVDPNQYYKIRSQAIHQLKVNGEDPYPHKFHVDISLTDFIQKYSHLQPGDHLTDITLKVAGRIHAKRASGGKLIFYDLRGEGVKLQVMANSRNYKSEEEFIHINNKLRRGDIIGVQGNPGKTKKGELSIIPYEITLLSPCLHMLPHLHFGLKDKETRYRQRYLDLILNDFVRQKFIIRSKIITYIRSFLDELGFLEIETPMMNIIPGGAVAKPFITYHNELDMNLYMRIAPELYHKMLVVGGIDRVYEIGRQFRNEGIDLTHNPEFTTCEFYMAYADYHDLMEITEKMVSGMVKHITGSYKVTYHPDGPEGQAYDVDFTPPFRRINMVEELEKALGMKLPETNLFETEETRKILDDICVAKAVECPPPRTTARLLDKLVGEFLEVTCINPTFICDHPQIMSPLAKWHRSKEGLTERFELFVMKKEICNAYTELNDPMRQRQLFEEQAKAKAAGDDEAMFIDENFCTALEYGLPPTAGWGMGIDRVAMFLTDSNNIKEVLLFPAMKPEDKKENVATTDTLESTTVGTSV

T1: S/FLAG/SBP tagged AIMP2, Q13155
T1 chain: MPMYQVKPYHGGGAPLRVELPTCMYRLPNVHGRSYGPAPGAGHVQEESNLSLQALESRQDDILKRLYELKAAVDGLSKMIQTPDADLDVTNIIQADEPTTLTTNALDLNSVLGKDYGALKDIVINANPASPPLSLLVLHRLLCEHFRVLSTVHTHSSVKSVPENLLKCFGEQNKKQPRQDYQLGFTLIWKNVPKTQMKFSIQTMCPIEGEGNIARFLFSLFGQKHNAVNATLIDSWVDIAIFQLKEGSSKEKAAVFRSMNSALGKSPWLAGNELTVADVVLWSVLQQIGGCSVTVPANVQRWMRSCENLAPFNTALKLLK

T2: S/FLAG/SBP tagged AIMP1, Q12904
T2 chain: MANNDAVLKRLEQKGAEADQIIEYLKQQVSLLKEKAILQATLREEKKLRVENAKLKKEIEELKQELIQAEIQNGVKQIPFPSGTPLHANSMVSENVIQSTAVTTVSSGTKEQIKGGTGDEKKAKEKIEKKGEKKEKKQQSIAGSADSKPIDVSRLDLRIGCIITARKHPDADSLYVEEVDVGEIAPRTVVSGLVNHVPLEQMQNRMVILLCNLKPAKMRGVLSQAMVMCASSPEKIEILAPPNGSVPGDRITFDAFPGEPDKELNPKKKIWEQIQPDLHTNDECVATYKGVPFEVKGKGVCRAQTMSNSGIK

T3: S/FLAG/SBP tagged AIMP2 (UniProt Q13155)
T3 sequence: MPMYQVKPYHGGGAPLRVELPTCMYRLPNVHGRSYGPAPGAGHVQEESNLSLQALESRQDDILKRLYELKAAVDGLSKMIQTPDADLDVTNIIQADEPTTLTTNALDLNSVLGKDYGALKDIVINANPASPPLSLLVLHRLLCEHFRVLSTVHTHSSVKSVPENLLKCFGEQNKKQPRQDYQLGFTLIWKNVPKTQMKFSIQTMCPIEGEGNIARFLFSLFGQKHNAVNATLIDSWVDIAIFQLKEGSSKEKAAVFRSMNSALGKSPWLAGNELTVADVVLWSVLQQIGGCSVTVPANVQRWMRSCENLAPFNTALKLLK

T4: S/FLAG/SBP tagged AIMP1 (UniProt Q12904)
T4 sequence: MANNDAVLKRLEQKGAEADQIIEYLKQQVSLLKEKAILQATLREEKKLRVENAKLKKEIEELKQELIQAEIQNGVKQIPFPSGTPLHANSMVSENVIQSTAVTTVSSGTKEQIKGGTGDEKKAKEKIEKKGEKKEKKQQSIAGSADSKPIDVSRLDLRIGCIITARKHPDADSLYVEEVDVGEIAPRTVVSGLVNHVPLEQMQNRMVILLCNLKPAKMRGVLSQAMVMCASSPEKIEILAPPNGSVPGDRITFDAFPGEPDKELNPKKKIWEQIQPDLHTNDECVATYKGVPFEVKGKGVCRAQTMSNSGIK

B1: Aspartyl-tRNA synthetase, P14868 1-501 (enzyme)
chain: MPSASASRKSQEKPREIMDAAEDYAKERYGISSMIQSQEKPDRVLVRVRDLTIQKADEVVWVRARVHTSRAKGKQCFLVLRQQQFNVQALVAVGDHASKQMVKFAANINKESIVDVEGVVRKVNQKIGSCTQQDVELHVQKIYVISLAEPRLPLQLDDAVRPEAEGEEEGRATVNQDTRLDNRVIDLRTSTSQAVFRLQSGICHLFRETLINKGFVEIQTPKIISAASEGGANVFTVSYFKNNAYLAQSPQLYKQMCICADFEKVFSIGPVFRAEDSNTHRHLTEFVGLDIEMAFNYHYHEVMEEIADTMVQIFKGLQERFQTEIQTVNKQFPCEPFKFLEPTLRLEYCEALAMLREAGVEMGDEDDLSTPNEKLLGHLVKEKYDTDFYILDKYPLAVRPFYTMPDPRNPKQSNSYDMFMRGEEILSGAQRIHDPQLLTERALHHGIDLEKIKAYIDSFRFGAPPHAGGGIGLERVTMLFLGLHNVRQTSMFPRDPKRLTP
B2: Methionyl-tRNA synthetase, P56192 1-900 (enzyme)
chain: MRLFVSDGVPGCLPVLAAAGRARGRAEVLISTVGPEDCVVPFLTRPKVPVLQLDSGNYLFSTSAICRYFFLLSGWEQDDLTNQWLEWEATELQPALSAALYYLVVQGKKGEDVLGSVRRALTHIDHSLSRQNCPFLAGETESLADIVLWGALYPLLQDPAYLPEELSALHSWFQTLSTQEPCQRAAETVLKQQGVLALRPYLQKQPQPSPAEGRAVTNEPEEEELATLSEEEIAMAVTAWEKGLESLPPLRPQQNPVLPVAGERNVLITSALPYVNNVPHLGNIIGCVLSADVFARYSRLRQWNTLYLCGTDEYGTATETKALEEGLTPQEICDKYHIIHADIYRWFNISFDIFGRTTTPQQTKITQDIFQQLLKRGFVLQDTVEQLRCEHCARFLADRFVEGVCPFCGYEEARGDQCDKCGKLINAVELKKPQCKVCRSCPVVQSSQHLFLDLPKLEKRLEEWLGRTLPGSDWTPNAQFITRSWLRDGLKPRCITRDLKWGTPVPLEGFEDKVFYVWFDATIGYLSITANYTDQWERWWKNPEQVDLYQFMAKDNVPFHSLVFPCSALGAEDNYTLVSHLIATEYLNYEDGKFSKSRGVGVFGDMAQDTGIPADIWRFYLLYIRPEGQDSAFSWTDLLLKNNSELLNNLGNFINRAGMFVSKFFGGYVPEMVLTPDDQRLLAHVTLELQHYHQLLEKVRIRDALRSILTISRHGNQYIQVNEPWKRIKGSEADRQRAGTVTGLAVNIAALLSVMLQPYMPTVSATIQAQLQLPPPACSILLTNFLCTLPAGHQIGTVSPLFQKLENDQIESLRQRFGGGQAKTSPKPAVVETVTTAKPQQIQALMDEVTKQGNIVRELKAQKADKNEVAAEVAKLLDLKKQLAVAEGKPPEAPKGKKKK
B3: Glutaminyl-tRNA synthetase (enzyme, UniProt P47897 1-775)
chain: MAALDSLSLFTSLGLSEQKARETLKNSALSAQLREAATQAQQTLGSTIDKATGILLYGLASRLRDTRRLSFLVSYIASKKIHTEPQLSAALEYVRSHPLDPIDTVDFERECGVGVIVTPEQIEEAVEAAINRHRPQLLVERYHFNMGLLMGEARAVLKWADGKMIKNEVDMQVLHLLGPKLEADLEKKFKVAKARLEETDRRTAKDVVENGETADQTLSLMEQLRGEALKFHKPGENYKTPGYVVTPHTMNLLKQHLEITGGQVRTRFPPEPNGILHIGHAKAINFNFGYAKANNGICFLRFDDTNPEKEEAKFFTAICDMVAWLGYTPYKVTYASDYFDQLYAWAVELIRRGLAYVCHQRGEELKGHNTLPSPWRDRPMEESLLLFEAMRKGKFSEGEATLRMKLVMEDGKMDPVAYRVKYTPHHRTGDKWCIYPTYDYTHCLCDSIEHITHSLCTKEFQARRSSYFWLCNALDVYCPVQWEYGRLNLHYAVVSKRKILQLVATGAVRDWDDPRLFTLTALRRRGFPPEAINNFCARVGVTVAQTTMEPHLLEACVRDVLNDTAPRAMAVLESLRVIITNFPAAKSLDIQVPNFPADETKGFHQVPFAPIVFIERTDFKEEPEPGFKRLAWGQPVGLRHTGYVIELQHVVKGPSGCVESLEVTCRRADAGEKPKAFIHWVSQPLMCEVRLYERLFQHKNPEDPTEVPGGFLSDLNLASLHVVDAALVDCSVALAKPFDKFQFERLGYFSVDPDSHQGKLVFNRTVTLKEDPGKV
B4: Arginyl-tRNA synthetase, P54136 1-660 (enzyme)
chain: MDVLVSECSARLLQQEEEIKSLTAEIDRLKNCGCLGASPNLEQLQEENLKLKYRLNILRKSLQAERNKPTKNMINIISRLQEVFGHAIKAAYPDLENPPLLVTPSQQAKFGDYQCNSAMGISQMLKTKEQKVNPREIAENITKHLPDNECIEKVEIAGPGFINVHLRKDFVSEQLTSLLVNGVQLPALGENKKVIVDFSSPNIAKEMHVGHLRSTIIGESISRLFEFAGYDVLRLNHVGDWGTQFGMLIAHLQDKFPDYLTVSPPIGDLQVFYKESKKRFDTEEEFKKRAYQCVVLLQGKNPDITKAWKLICDVSRQELNKIYDALDVSLIERGESFYQDRMNDIVKEFEDRGFVQVDDGRKIVFVPGCSIPLTIVKSDGGYTYDTSDLAAIKQRLFEEKADMIIYVVDNGQSVHFQTIFAAAQMIGWYDPKVTRVFHAGFGVVLGEDKKKFKTRSGETVRLMDLLGEGLKRSMDKLKEKERDKVLTAEELNAAQTSVAYGCIKYADLSHNRLNDYIFSFDKMLDDRGNTAAYLLYAFTRIRSIARLANIDEEMLQKAARETKILLDHEKEWKLGRCILRFPEILQKILDDLFLHTLCDYIYELATAFTEFYDSCYCVEKDRQTGKILKVNMWRMLLCEAVAAVMAKGFDILGIKPVQRM
B5: Aminoacyl tRNA synthase complex-interacting multifunctional protein 1 (endogenous, canonical), Q12904 1-312 (protein)
chain: MANNDAVLKRLEQKGAEADQIIEYLKQQVSLLKEKAILQATLREEKKLRVENAKLKKEIEELKQELIQAEIQNGVKQIPFPSGTPLHANSMVSENVIQSTAVTTVSSGTKEQIKGGTGDEKKAKEKIEKKGEKKEKKQQSIAGSADSKPIDVSRLDLRIGCIITARKHPDADSLYVEEVDVGEIAPRTVVSGLVNHVPLEQMQNRMVILLCNLKPAKMRGVLSQAMVMCASSPEKIEILAPPNGSVPGDRITFDAFPGEPDKELNPKKKIWEQIQPDLHTNDECVATYKGVPFEVKGKGVCRAQTMSNSGIK
B6: Isoform 1 of Probable threonyl-tRNA synthetase 2, A2RTX5 1-802 (enzyme)
chain: MAAEALAAEAVASRLERQEEDIRWLWSEVERLRDEQLNAPYSCQAEGPCLTREVAQLRAENCDLRHRLCSLRLCLAEERSRQATLESAELEAAQEAGAQPPPSQSQDKDMKKKKMKESEADSEVKHQPIFIKERLKLFEILKKDHQLLLAIYGKKGDTSNIITVRVADGQTVQGEVWKTTPYQVAAEISQELAESTVIAKVNGELWDLDRPLEGDSSLELLTFDNEEAQAVYWHSSAHILGEAMELYYGGHLCYGPPIENGFYYDMFIEDRAVSSTELSALENICKAIIKEKQPFERLEVSKEILLEMFKYNKFKCRILNEKVNTATTTVYRCGPLIDLCKGPHVRHTGKIKTIKIFKNSSTYWEGNPEMETLQRIYGISFPDNKMMRDWEKFQEEAKNRDHRKIGKEQELFFFHDLSPGSCFFLPRGAFIYNTLTDFIREEYHKRDFTEVLSPNMYNSKLWEASGHWQHYSENMFTFEIEKDTFALKPMNCPGHCLMFAHRPRSWREMPIRFADFGVLHRNELSGTLSGLTRVRRFQQDDAHIFCTVEQIEEEIKGCLQFLQSVYSTFGFSFQLNLSTRPENFLGEIEMWNEAEKQLQNSLMDFGEPWKMNPGDGAFYGPKIDIKIKDAIGRYHQCATIQLDFQLPIRFNLTYVSKDGDDKKRPVIIHRAILGSVERMIAILSENYGGKWPFWLSPRQVMVIPVGPTCEKYALQVSSEFFEEGFMADVDLDHSCTLNKKIRNAQLAQYNFILVVGEKEKIDNAVNVRTRDNKIHGEILVTSAIDKLKNLRKTRTLNAEEAF

Tests used:
Experiment in all cases: affinity purification with mass spectrometry; S/FLAG/SBP-tagged bait transiently expressed in HEK 293T and HCT-8 cells; 2 mg lysate protein in NETN buffer (20 mM Tris-HCl pH 7.4, 1 mM EDTA, 150 mM NaCl, 0.5% Nonidet P-40) on streptavidin agarose, 2 h, 4 °C; eluted with biotin; in-gel digestion, LC-MS/MS; SAINT probability 0.9 or above against a mock vector with the tag only; three biological replicates
[1] = biological target: S/FLAG/SBP tagged KARS, Q15046; details: remark: other sources report otherwise
[2] = biological target: T1, S/FLAG/SBP tagged AIMP2, Q13155; details: remark: other sources report otherwise
[3] = biological target: T2, S/FLAG/SBP tagged AIMP1, Q12904; details: remark: other sources report otherwise
S/FLAG/SBP tagged AIMP2 = biological target: T3, S/FLAG/SBP tagged AIMP2
S/FLAG/SBP tagged AIMP1 = biological target: T4, S/FLAG/SBP tagged AIMP1
S/FLAG/SBP tagged KARS = S/FLAG/SBP tagged KARS (UniProt Q15046)

Row | Binder | binding [1] | binding [2] | binding [3] | further results
1 | B1 | binds | binds | binds | –
2 | B2 | – | binds | – | –
3 | B3 | – | – | – | binding (S/FLAG/SBP tagged AIMP2): binds; binding (S/FLAG/SBP tagged AIMP1): binds; binding (S/FLAG/SBP tagged KARS): binds
4 | B4 | binds | binds | binds | –
5 | B5 | binds | – | – | –
6 | B6 | binds | – | – | –

No constants are given. Whether binding was seen depends on the method and setting. Binding seen in cells or lysates may run through a third protein. A yes stands for co-enrichment or nearness to the bait. Other partners may have been found. For part of these data: Tags and fused reporters may be left off the sequences shown.
